PubChem BioAssay AID2685 (National Center for Advancing Translational Sciences (NCATS), 2010)
The list shows a part of the results. These are further read-outs of the screen, such as a control signal, another cell line or another target. No call is given for them. Most of these compounds were active or inconclusive in the main read-out, so they are no random draw. Potencies come from curve fits of mixed quality, noted in brackets.

Test: qHTS Assay for Lipid Storage Modulators in Drosophila S3 Cells;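 on cell number change: cells counted by Cell Tracker Red CMTPX staining in the red channel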
Conditions: BODIPY lipid droplet fluorescence, 18-24 h; for cell number change: measured here: cell count max response, cells fed with added oleic acid
How it was run: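 Drosophila S3 cells loaded with oleic acid (400 uM, as added) and compounds at several concentrations; lipid droplets imaged by 488-nm laser-scanning cytometry, 500–530 nm intensity and object ratio to cell channel. Percent activity normalized to 20 uM Triacsin C.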

[1] = measured here: cell number channel AC50, cells fed with added oleic acid
[2] = measured here: lipid fluorescence (Fed channel) AC50, cells fed with added oleic acid

In the case of `CSc1ccccc1NC(=O)c1cc(C(C)C)on1`, the cell number change was 41.1% and the AC50 [1] was 32.6 µM [rising, single point].

`CSc1nsc(SCC(=O)Nc2cccc(C(=O)O)c2)n1` showed a cell number change of -4.35%.

For `CCOc1ccc(S(=O)(=O)Nc2ccc(C(=O)NCCCN3CCCC3=O)cc2)cc1`, the cell number change was 34.9% and the AC50 [1] was 8.2 µM [rising, partial curve, poor fit].

With `COc1ccc(N2CC(C)Cn3c2nc2c3c(=O)[nH]c(=O)n2C)cc1` (stereo not drawn) the cell number change was -19.8%.

Work on `CCOC(=O)C1CCN(C(=O)CN(c2cccc(C(F)(F)F)c2)S(C)(=O)=O)CC1` yielded a cell number change of -1.76%.

With `O=C(N/N=C/c1cn(-c2ccccc2)nc1-c1cccnc1)c1ccc(F)cc1` the cell number change was 15.6% and the AC50 [2] was 0.00517 µM [rising, full curve].

With `CCC(C)NC(=O)CSc1nnc(-c2ccoc2C)n1CC1CCCO1` (stereo not drawn) the cell number change was 7.81% and the AC50 [2] was 0.92 µM [rising, full curve, poor fit].

For `N#Cc1ccc(NC(=O)Nc2ccc(Cl)cc2)cc1`, the cell number change was -126%, the AC50 [1] was 20.6 µM [falling, partial curve] and the AC50 [2] was 16.4 µM [falling, partial curve].

In the case of `Cc1cc(C)cc(N(CC(=O)NCc2ccco2)C(=O)CCC(=O)Nc2ccccn2)c1`, the cell number change was 32.4% and the AC50 [1] was 11.6 µM [rising, partial curve, poor fit].

In the case of `Cc1cc(C)n2cc(CSc3ccc(Cl)cc3)nc2n1`, the cell number change was 0.32%, the AC50 [1] was 0.116 µM [falling, full curve, poor fit] and the AC50 [2] was 0.58 µM [falling, single point].

For `COc1ccc(N=c2oc3cc(O)ccc3cc2C(=O)NCC2CCCO2)cc1` (stereo not drawn), the cell number change was 1.27% and the AC50 [2] was 0.146 µM [falling, full curve, poor fit].

For `O=C(OC1CCOC1=O)c1ccc(Cl)c(S(=O)(=O)N2CCCCC2)c1` (stereo not drawn), the AC50 [2] was 6.51 µM [falling, single point].

In the case of `O=C(Nc1ccc(F)cc1)c1ccc(-n2ccnc2)nc1`, the cell number change was 36.7%, the AC50 [1] was 32.6 µM [rising, single point] and the AC50 [2] was 18.4 µM [rising, single point].

Molecule `COc1ccc(-c2csc(NC(=O)c3ccoc3C)n2)cc1` has a cell number change of 5.08%.

In the case of `CCc1sc(NS(C)(=O)=O)nc1-c1ccccc1`, the cell number change was 49.4%, the AC50 [1] was 11.6 µM [rising, partial curve, poor fit] and the AC50 [2] was 14.6 µM [rising, partial curve].

In the case of `Fc1ccc(-c2nnc(CSc3nnc(-c4cccs4)o3)o2)cc1`, the cell number change was 6.66% and the AC50 [2] was 0.58 µM [falling, single point].

For `CC(C)C(NC(=O)c1c(F)cccc1F)C(=O)N1CCN(S(=O)(=O)c2ccc(F)cc2)CC1` (stereo not drawn), the AC50 [2] was 1.03 µM [rising, full curve, poor fit].

For `CCOC(=O)c1ccc(Nc2nnc(C(C)(C)C)c(=O)[nH]2)cc1`, the cell number change was -20.2% and the AC50 [2] was 0.0259 µM [falling, full curve, poor fit].

With `COc1ccc(Br)cc1CN(C)C(=O)c1cnc(C)cn1` the cell number change was 17.4% and the AC50 [2] was 2.06 µM [rising, single point].

With `Cc1cc(C)cc(C(=O)NCC(=O)OCC(=O)N(C)C2CCS(=O)(=O)C2)c1` (stereo not drawn) the cell number change was -6.58% and the AC50 [2] was 4.11 µM [falling, single point].

For `O=C(Nc1nnc(C2CC2)s1)C1CCCCN1S(=O)(=O)c1ccccc1` (stereo not drawn), the AC50 [1] was 2.31 µM [rising, single point].

Molecule `CCOCC(=O)Nc1ccc(S(=O)(=O)Nc2nccs2)cc1` has a cell number change of 0.265%.

For `CCn1nc(C(=O)Nc2cccc(S(=O)(=O)N3CCCC3)c2)c2ccccc2c1=O`, the cell number change was 17.4% and the AC50 [2] was 32.6 µM [rising, single point].

For `COc1ccc(CCN(C)C(=O)c2cccc(S(=O)(=O)NCc3ccccc3)c2)cc1OC`, the cell number change was -48.4% and the AC50 [1] was 32.6 µM [falling, single point].

In the case of `Cc1ccc(CNC(=O)c2cc(S(=O)(=O)N3CCCCC3)ccc2N2CCOCC2)cc1`, the cell number change was 5.54% and the AC50 [2] was 1.64 µM [rising, full curve].

In the case of `CC[C@H](C)[C@H](NC(=O)c1ccc(Cl)cc1)C(=O)OCC(=O)c1ccc2c(c1)NC(=O)CO2`, the cell number change was -73.8%, the AC50 [1] was 6.51 µM [falling, partial curve] and the AC50 [2] was 6.51 µM [falling, partial curve].

For `CCN(CC)CCCN1C(=O)C(O)=C(C(=O)c2cc3cccc(OC)c3o2)C1c1ccncc1` (stereo not drawn), the cell number change was 2.38% and the AC50 [2] was 0.58 µM [falling, single point].

With `Cc1ccc(NC(=O)/C(=C\c2ccc3c(c2)OCO3)NC(=O)c2ccco2)cc1` the cell number change was -20.2% and the AC50 [2] was 29.1 µM [falling, single point].

With `CC(C)CNC(=O)C(=O)NCC1OCCCN1S(=O)(=O)c1cccs1` (stereo not drawn) the cell number change was -38.5% and the AC50 [2] was 0.355 µM [rising, full curve].

For `CC(C)(C)c1cn(-c2ccc(Cl)cc2)c(=S)[nH]1`, the cell number change was 2.15% and the AC50 [2] was 0.651 µM [falling, full curve].

For `Cc1cc(=O)[nH]c(-n2ncc(C#N)c2N)n1`, the cell number change was -17.6% and the AC50 [1] was 0.00461 µM [falling, full curve, poor fit].

In the case of `NC1=NC[C@H](c2ccccc2)N1CCc1cc(C(F)(F)F)cc(C(F)(F)F)c1`, the cell number change was -57.6%, the AC50 [1] was 25.9 µM [falling, partial curve, poor fit] and the AC50 [2] was 18.4 µM [falling, partial curve, poor fit].

With `COc1ccc(S(=O)(=O)N2CCN(CCOc3ccccc3Cl)CC2)cc1OC` the cell number change was 8.77% and the AC50 [2] was 1.46 µM [rising, partial curve].

For `Cc1cccc(C)c1OCc1nnc(SCC(=O)Nc2nccs2)n1-c1ccccc1`, the cell number change was 21.5%, the AC50 [1] was 0.291 µM [rising, full curve, poor fit] and the AC50 [2] was 0.461 µM [rising, full curve].

In the case of `C/C=C\C(=O)Nc1cccc(C2=NOC3(C2)C[C@H](C(N)=O)N(C(=O)[C@H]2CCC(=O)N2)C3)c1` (stereo partly drawn), the cell number change was -18.4%, the AC50 [1] was 0.00461 µM [falling, full curve, poor fit] and the AC50 [2] was 2.91 µM [falling, full curve].

With `Cc1ccc(C(=O)/C=C/c2cc(Br)cc(Br)c2O)o1` the cell number change was -95.8% and the AC50 [1] was 29.1 µM [falling, partial curve, poor fit].

Molecule `CC1CCN(c2c(NCC3CCC(C(=O)N4CCCC(C)C4)CC3)c(=O)c2=O)CC1` (stereo not drawn) has a cell number change of 10.7%.

With `CSCCC(NS(=O)(=O)c1ccc(Cl)cc1)C(=O)OCC(=O)c1c(C)[nH]c2ccccc12` (stereo not drawn) the cell number change was -25.6% and the AC50 [2] was 6.51 µM [rising, partial curve, poor fit].

For `O=c1c2cc(F)ccc2sn1-c1ccccc1`, the cell number change was -81.1%, the AC50 [1] was 5.8 µM [falling, full curve] and the AC50 [2] was 29.1 µM [falling, partial curve].

For `CCC(C)NC(=O)CNC(=S)N(Cc1ccc(F)cc1)C1CCCCC1` (stereo not drawn), the cell number change was -14.6%.

For `COc1ccc([C@]23Cc4cc(C#N)ccc4C(O2)c2c(cc(C)n(-c4ccccc4)c2=O)O3)cc1`, the cell number change was 15.4% and the AC50 [2] was 5.31 µM [rising, single point].

With `CCC(=O)Nc1cccc(C(=O)c2ccccc2)c1` the cell number change was -9.4% and the AC50 [2] was 0.92 µM [rising, full curve].

For `Cc1cccc(NC(=O)CN2C(=O)/C(=C3\SC(=S)N(CC4CCCO4)C3=O)c3ccccc32)c1` (stereo not drawn), the cell number change was 3.44% and the AC50 [2] was 14.6 µM [rising, partial curve].

For `Cc1ccc(NC(=O)Nc2cccc([N+](=O)[O-])c2)cc1F`, the AC50 [2] was 6.51 µM [falling, single point].

With `CC1CCN(S(=O)(=O)c2ccc(Cl)cc2Br)CC1` the AC50 [2] was 6.51 µM [falling, single point].

`Cc1ccc(-c2cnn3c(N4CCOCC4)cc(C)nc23)cc1` gave a cell number change of 9.93%.

In the case of `NC1=NC2=C(CCCC2)C2(CCCCC2)S1`, the cell number change was 2.08% and the AC50 [2] was 6.51 µM [falling, single point].

For `COc1cccc(Nc2ncnc3sc(C)cc23)c1`, the cell number change was 1.32% and the AC50 [2] was 29.1 µM [falling, single point].

With `C[C@@H]1CC=C[C@H]2[C@H]1C(=O)N(Cc1ccccc1)[C@H]2c1ccc(F)c(/C=C/c2ccccc2)c1` the cell number change was 0.164% and the AC50 [2] was 2.31 µM [rising, single point].

In the case of `C/C(=N\NC(=O)c1ccc2c(c1)OCO2)c1cccnc1`, the cell number change was 11.2%, the AC50 [1] was 6.51 µM [rising, partial curve] and the AC50 [2] was 6.51 µM [rising, single point].

In the case of `COC(=O)c1ccccc1NC(=O)C1CC(=O)N(c2ccccc2)C1` (stereo not drawn), the AC50 [1] was 6.51 µM [rising, single point].

With `COc1cc(C2c3c(-c4ccccc4)n[nH]c3C(=O)N2c2ccc(C(=O)O)cc2)ccc1O` (stereo not drawn) the AC50 [2] was 0.0116 µM [rising, full curve, poor fit].

For `Cc1cc(C)c2c(CC(=O)Nc3nccs3)coc2c1`, the cell number change was -7.69% and the AC50 [2] was 0.184 µM [rising, full curve, poor fit].

In the case of `CC(C)c1ccc(NC(=O)COC(=O)/C=C/c2cccc(Br)c2)cc1`, the cell number change was -45.2%, the AC50 [1] was 6.51 µM [falling, full curve] and the AC50 [2] was 6.51 µM [falling, full curve].

In the case of `CC(C)CCNC(=O)c1ccc2nc[nH]c2c1`, the cell number change was 11.6% and the AC50 [2] was 6.51 µM [falling, single point].

With `CC(C)(C)c1ccc(C(=O)N2CCC(C(=O)N3CCCCC3)CC2)cc1` the cell number change was 14.5%.

`CN(C)c1ccc(C(C(=O)NCC2CCCO2)N(C(=O)c2snc(C(N)=O)c2N)c2ccccc2)cc1` (stereo not drawn) showed a cell number change of -7.69%.

With `O=C(CSc1nnc(NC(=O)c2ccco2)s1)Nc1ccccc1` the cell number change was -29.9% and the AC50 [2] was 29.1 µM [falling, single point].

For `O=C(O)CC1(CC(=O)Nc2ccc(Oc3cccc(C(F)(F)F)c3)nc2)CCCC1`, the cell number change was -61.3%, the AC50 [1] was 29.1 µM [falling, single point] and the AC50 [2] was 20.6 µM [falling, single point].
